Assay results as given in PubChem BioAssay AID1508600 (Functional Genomics Laboratory (NCATS/FGL), 2020).
In all, about 53,000 sequences went through this assay and about 3,700 (7%) were called active.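 The calls were made as follows: active = gene knockdowns whose robust z-score for IL-1 alpha signal is at least 2 or at most -2, so actives lie on both sides; inactive = the rest.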 The list shows a part of the results.

Experiment: Components of the Cytosolic LPS Sensing Pathway: Gene Identification via Genome-wide siRNA Screen;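 also: robust z of the log signal after scaling to non-targeting control siRNA wells of the plate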
Details: RAW264.7 macrophages, IL-1a HTRF, actives lie on both sides, screened at 100 nM (by protocol), cells primed 5 h with Pam3CSK4 first
How it was run: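 Three distinct siRNAs per gene were tested singly at 100 nM in RAW264.7 macrophages. Following Pam3CSK4 priming and 24 hour LipidA transfection, IL-1a secretion was read by HTRF.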

Sequence	z-score
GGAAAGUCGUCGUAACUAUTT against Dnajc4	inactive: -0.812
CCAACGUAAGAAAUUCAGATT against Smoc1	inactive: 0.466
GGCCUAAAUAAGGAUGUGATT against Gdpd3	inactive: -1.03
GCAAAUUCUGACUUACUAATT against Ankfn1	inactive: 0.61
AAAAAACAGCACCCUGAUGTT against Olfr204	inactive: 1.1
GGACAAAGACAAACUUUAATT against Scn4a	inactive: -0.236
GGAUGUCAGUAUUUCCUGGTT against Glrx	inactive: -0.255
GGCUCUAUGUUUAUAAUGATT against Olfm5	active: -2.07
GGGUCUUAUCUCGAUGAGGTT against Flt3l	inactive: -0.199
CCAACAACGGCAUUCACUATT against Ebf3	inactive: -0.676
GCCUUUAAGAUACUAUCCATT against Lysmd4	inactive: 0.676
GCUUUGUAGGAGUUUUUAATT against Rhoq	inactive: 1.5
GGAACAGAGUGUCCACAAUTT against Apof	inactive: -1.68
UUAAGGAAAUGUUCUGUUCTT against Olfr426	inactive: 0.797
GGUUUACAAAAAUUCUCAGTT against Hcn1	inactive: -0.124
GCCAUUGUACAGCUACCAUTT against Figla	inactive: -0.186
GCUAUCCUAAUCCUCAAUATT against Tmprss11d	inactive: -0.182
GGGCAGUGAAAUCCUGUCUTT against Trim16	active: -2.81
GGAAUGGAUCCUGAUGAUATT against Spcs2	inactive: -0.877
GGAAGCACCCACAAAACCUTT against Barx2	inactive: -1.19
GGAGAGCAUUCCCAUUGCUTT against Ddx6	active: -2
GGAAGGAGAAUGGUACUGGTT against Cd209e	inactive: -1.66

Sequence	z-score
GCUAAAAAAGCUUCUUCAUTT against Gypc	inactive: -0.48
GGUUGUCUUUCUACUCGGGTT against Plpp1	inactive: 1.37
GCUAUCAUUAACAACAAAGTT against Olfr808	inactive: -1.79
GGUGUUUAAAUUCAUCUACTT against Sec16a	inactive: 0.88
GUCCUGAAAAUGCUAUUCUTT against Olfr68	inactive: 0.281
GGAAUGAGCUCGAUUAUAATT against Nrip1	inactive: 1.21
CGAUAUGAUGACAAAUCAGTT against Pik3ap1	inactive: -0.352
CCAGCUUUUACCUAAUACCTT against Ggt1	inactive: 0.0683
GGAGACACAUAGGUGUAAATT against H2-T23	inactive: 0.458
GGAUCUUUUAGCUAACCUATT against Tesk2	inactive: 1.84
GGCUGGAUGUAGAAAAUAUTT against Aspm	active: -2.1
GGGUUUUUCAUGUGUUUACTT against Rbpms2	inactive: -0.259
CCACUUUGGUGUAUAGUCATT against Hnrnpab	inactive: 1.08
CCUAAAAUCCACCAAGCUUTT against Zbtb46	inactive: -0.489
GGCCCUGUAUUUCUCUGACTT against Plat	inactive: -1.03
GGAUAAGAGACAAUGAAUUTT against Fut7	inactive: -1.19
GAAUCAGCUGUUCUCUCACTT against Tm2d3	active: 2.25
CCAAGUGUAUUUCACAUAATT against F2r	inactive: -0.395
GCUUUCCUGUGCUCCAACGTT against Olfr527	inactive: 1.38
GGCCUUCAAGAACUCCUCCTT against Zfp628	inactive: 0.939
GGUGGUCUAAGUCCUGACATT against Hmx1	inactive: -0.112
GCCCACUUUCUAGGUAGUUTT against Olfr703	inactive: 0.164

Sequence	z-score
GCAUGAGGAAAAAUCUUCATT against Neurod4	inactive: -0.158
GCUCUUUCAACAUGUAGUUTT against Olfr1180	inactive: -1.1
GCACUAAGUGGUCCAAUUATT against Ephx4	inactive: -1.39
GGGCUCGUAAAGAAAGAAGTT against Cep41	inactive: -1.15
GGAGCAGUUACAGGAAAUCTT against Cdr2	active: -2.11
GGAUAAGACUUUAGCUUUUTT against Fbxo45	inactive: 0.839
GGAGGAGAAAAAUUGUAUUTT against A530053G22Rik	inactive: 0.0138
ACAAAGUCUGUUCAAGAUCTT against Oc90	inactive: -0.0677
GGGAAAAUAACAAAAAGAGTT against Hoxc6	inactive: -1.07
GAUACUGUCUACAAGCUUCTT against Cep44	inactive: 0.604
GAAUGAGUUCUGCCCAGUCTT against Lhb	inactive: 0.128
GAUGAUGAACGACUGGUUCTT against Olfr285	inactive: 0.456
GGAAGCCUUAUAUCGGGCGTT against Togaram1	inactive: 1.1
CGGGUUCCCAGGAAUUAAGTT against Col4a6	inactive: 0.304
GGGAAGUUCAUUUGUUAAATT against Gosr1	inactive: 0.965
GGCAUUAGAGCAGAGUCGUTT against Trmu	inactive: -1.29
CCUACAGGGAAUACGUGUATT against Ttc17	inactive: -0.0575
GGUUGGUAGACUGUGCUUGTT against Hgsnat	active: -2.56
GCUGUAUUAUGUAGCUUCUTT against Ddx27	inactive: 0.325
GGGCCUUCACAAUGUCCUUTT against Brca1	active: 2.68
CGUGAUGAAUGAGAAUAACTT against Maea	inactive: 0.584
GCGAGUUCGAUUGCUUCUCTT against Cited4	inactive: 0.802

31 entries from above, set out differently:
Sequence,z-score
GGAAGCACCCACAAAACCUTT against Barx2,inactive: -1.19
GGAGAGCAUUCCCAUUGCUTT against Ddx6,active: -2
GGAAGGAGAAUGGUACUGGTT against Cd209e,inactive: -1.66
GCUAAAAAAGCUUCUUCAUTT against Gypc,inactive: -0.48
GGUUGUCUUUCUACUCGGGTT against Plpp1,inactive: 1.37
GCUAUCAUUAACAACAAAGTT against Olfr808,inactive: -1.79
GGUGUUUAAAUUCAUCUACTT against Sec16a,inactive: 0.88
GUCCUGAAAAUGCUAUUCUTT against Olfr68,inactive: 0.281
GGAAUGAGCUCGAUUAUAATT against Nrip1,inactive: 1.21
CGAUAUGAUGACAAAUCAGTT against Pik3ap1,inactive: -0.352
CCAGCUUUUACCUAAUACCTT against Ggt1,inactive: 0.0683
GGAGACACAUAGGUGUAAATT against H2-T23,inactive: 0.458
GGAUCUUUUAGCUAACCUATT against Tesk2,inactive: 1.84
GGCUGGAUGUAGAAAAUAUTT against Aspm,active: -2.1
GGGUUUUUCAUGUGUUUACTT against Rbpms2,inactive: -0.259
CCACUUUGGUGUAUAGUCATT against Hnrnpab,inactive: 1.08
CCUAAAAUCCACCAAGCUUTT against Zbtb46,inactive: -0.489
GGCCCUGUAUUUCUCUGACTT against Plat,inactive: -1.03
GGAUAAGAGACAAUGAAUUTT against Fut7,inactive: -1.19
GAAUCAGCUGUUCUCUCACTT against Tm2d3,active: 2.25
CCAAGUGUAUUUCACAUAATT against F2r,inactive: -0.395
GCUUUCCUGUGCUCCAACGTT against Olfr527,inactive: 1.38
GGCCUUCAAGAACUCCUCCTT against Zfp628,inactive: 0.939
GGUGGUCUAAGUCCUGACATT against Hmx1,inactive: -0.112
GCCCACUUUCUAGGUAGUUTT against Olfr703,inactive: 0.164
GCAUGAGGAAAAAUCUUCATT against Neurod4,inactive: -0.158
GCUCUUUCAACAUGUAGUUTT against Olfr1180,inactive: -1.1
GCACUAAGUGGUCCAAUUATT against Ephx4,inactive: -1.39
GGGCUCGUAAAGAAAGAAGTT against Cep41,inactive: -1.15
GGAGCAGUUACAGGAAAUCTT against Cdr2,active: -2.11
GGAUAAGACUUUAGCUUUUTT against Fbxo45,inactive: 0.839

Remaining list, next part:

Sequence	z-score
GGAAGGAACUCAAGAAGACTT against Ifrd1	active: 2.13
GGACUUAGUGUGGAAAAGATT against Ddah2	inactive: -1.69
GGAGAUAGCAAACCUUAAGTT against Ccdc60	inactive: 0.405
GGUGACUCCAAGAAUGUGGTT against Wfdc1	inactive: -0.703
GGUUACCUAGAAGUGGACUTT against Igsf6	inactive: 0.201
GGUCUCUUUUUGUUUCCUUTT against Ctf1	inactive: 0.913
GCUGCCAACGAAGAUGAGCTT against Casc1	inactive: 0.306
GGUGAAUCAGCGUAAUGUATT against Nrbp1	inactive: -1.37
GGCAGUCCUUCCUCCAAAGTT against Tmem69	inactive: -0.821
GCACUAAAUCCUUUGAUAUTT against Olfr307	inactive: 1.08
CCUGGCAGUAAAAGAUUGCTT against Ndst3	inactive: 0.836
GGCUGUAGAAGGCUUAUUATT against Cnot1	inactive: -0.786
CCGAGUUUGGGAAUAACUUTT against Cacna1a	inactive: 1.45
GGAGAGCUCUUUACCUAAUTT against Gykl1	inactive: 0.206
CCAUCUUGACACCCAAACUTT against Olfr170	active: -3.09
CCUACAUCACACCUUGAUATT against Olfr1309	inactive: -0.587
CCCUAACUGAGGAAGGAGGTT against Zfp384	inactive: 0.455
GGCCAGGAUUAUAAGUUUUTT against AI504432	inactive: 1.61
CGGAAUCAAACUUUUCGGGTT against Rbm7	inactive: -0.487
CCCACCGAGACACCAUCUUTT against Syne4	inactive: -1.78
GGAUGCCUUUGAUGAUGUGTT against Fmnl2	inactive: -0.332
GGAGAAAUAUGAUGUUCUUTT against Mppe1	inactive: 0.819

Sequence	z-score
GGUAUUCAAUAUGGUGAAGTT against Zfp932	inactive: -1.02
GGGCUGCAUUAUUUGAAUUTT against Tmcc2	inactive: 1.38
GCUCAGUGAUAAUUAAACGTT against Nudt10	inactive: -0.596
CCCACUAAGGAACAAAUUGTT against Tex24	inactive: 0.297
GCCCUGAUGCAAGCUUGUGTT against Gprin3	inactive: 0.193
CCUUAGGGAGAUAAGCUUUTT against Olfr603	inactive: 0.095
GGCCCUAAAUUAUACCAGCTT against Bhlha15	inactive: 0.653
GCUAACCAAGCUUGUGACATT against Adat1	inactive: -1.11
CCUCAUUCAGAGUAUAUAGTT against Vwa3a	inactive: -0.469
GGAUUUGCUUCAACAUAGGTT against Ncf2	inactive: 0.0888
CCUUGUAGGAAAAAAGUCCTT against Zfp109	inactive: 1.62
GGAGGUAGAAAUAAAUACUTT against Sva	active: 2.01
GGAGCAUUGCCUUUUAAAGTT against Psph	inactive: -0.474
CCUGGAUACCUUCAACUAUTT against Galnt14	inactive: -0.209
GGCGGUGAAGACAUUGAAATT against Stxbp2	inactive: 1.05
CCUCAUUGAGUUUUGAAGATT against Dtd2	inactive: -0.329
GCGAGUUGCUCUACGUCAUTT against Npvf	inactive: 0.414
GGGACUUUCCAGUGUAAAGTT against Npb	inactive: -0.646
GGACAAUUGUAAGGACAGATT against Slc1a6	inactive: 0.43
GGUCUUUGAUGUUUUCACCTT against Togaram2	inactive: 1.22
